Among the data in patent EP2392597B1 are binding values, retold here.

Amino acid sequences for entries named in this document (tags omitted). A change or cut given only in a name is not applied to a line headed by its entry.
UniProt Q9NPF7: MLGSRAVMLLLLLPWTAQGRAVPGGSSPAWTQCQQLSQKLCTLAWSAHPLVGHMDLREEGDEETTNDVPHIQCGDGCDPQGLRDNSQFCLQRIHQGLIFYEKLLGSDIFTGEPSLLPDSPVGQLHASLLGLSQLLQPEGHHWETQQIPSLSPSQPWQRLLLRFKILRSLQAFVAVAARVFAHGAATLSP

No constants are given. Whether binding was seen depends on the method and setting. Some entries that bind do so weakly or less than the wild type.

The chains are these.
B1: anti-IL-23p19 Fab/scFv cluster 130 (Fab, V domains shown)
VH: EVQLLESGGGLVQPGGSLRLSCAASGFTFSYYGMGWVRQAPGKGLEWVSGIWPSGGPTYYADSVKGRFTISRDNSKNTLYLQMNSLRAEDTAMYYCAKYTGSRTRVFDYWGQGTLVTVSS
VL: DIQMTQSPSTLSASVGDRVTLTCRASQSISRYLAWYQQKPGKAPKLLIYKASSLVSGFPSRFSGSGSGTEFTLTISSLQPDDSATYYCQQYNDYPGTFGQGTKLEIK
B2: anti-IL-23p19 Fab/scFv cluster 119 (Fab, V domains shown)
VH: EVQLLESGGGLVQPGGSLRLSCAASGFTFSPYTMEWVRQAPGKGLEWVSSIYPSGGWTHYADSVKGRFTISRDNSKNTLYLQMNSLRAEDTAMYYCARARSACYDDWGQGTLVTVSS
VL: RHPMTQSPLSLSASVGDRVTVTCRASQSISTYLNWYQQKPGKAPKLLIYAASSLQSGVPSRFSGSGSGTDFTLTIRSLQPDDFATYYCQQSYSSPFTFGPGTKVDFK
B3: anti-IL-23p19 Fab/scFv cluster 43 (Fab, V domains shown)
VH: EVQLLESGGGLVQPGGSLRLSCAASGFTFSWYGMVWVRQAPGKGLEWVSSISPSGGSTDYADSVKGRFTISRDNSKNTLYLQMNSLRAEDTAVYYCARVGSSWYLDVWGQGTTVTVSS
VL: DIQMTQSPLSLPVTPGEPASISCRSSQSLLHSNGYNYLDWFLQKPGQSPQLLIYLGSHRASGVPDRFSGSGSGTDFTLKISRVEAEDVGVYYCMQALQSRYTFGQGTKLEIK
B4: anti-IL-23p19 Fab/scFv cluster 123 (Fab, V domains shown)
VH: EVQLLESGGGLVQPGGSLRLSCAASGFTFSRYNMVWVRQAPGKGLEWVSSISSSGGFTRYADSVKGRFTISRDNSKNTLYLQMNSLRAEDTAVYYCARWYSSSWYGNWFDPWGQGTLVTVSS
VL: QSALTQPPSVSVSPGQTASITCSGDNLGDKYASWYQQKPGQSPVLVIYQDNKRPSGIPERFSGSNSGNTATLTLSRVEAGDEADYYCQVWDSSYNWVFGGGTKLTVL
B5: anti-IL-23p19 Fab/scFv cluster 131 (Fab, V domains shown)
VH: EVQLLESGGGLVQPGGSLRLSCAASGFTFSYYEMVWVRQAPGKGLEWVSRIWPSGGYTRYADSVKGRFTISRDNSKNTLYLQMNSLRAEDTAVYYCARGVLTDPGAFDIWGQGTMVTVSS
VL: DIQMTQSPSFLSASVGDRVTITCRASQGFGSYLAWYQQKPGKAPKLLIYAASTLQSGVPSRFSGSGSGTEFTLTISSLQPEDFATYYCQHLNSFRFTFGPGTKVDIK
B6: anti-IL-23p19 Fab/scFv cluster 120 (Fab, V domains shown)
VH: EVQLLESGGGLVQPGGSLRLSCAASGFTFSAYVMLWVRQAPGKGLEWVSYIWPSGGETKYADSVKGRFTISRDNSKNTLYLQMNSLRAEDTAVYYCARSMGYGDAFDIWGQGTMVTVSS
VL: DIQMTQSPSSLPVTPGEPASISCRSSQSLLHTNGHNYLDWYLQKPGQSPKLLIYLGSNRASGVPDRFSGSGSGTDFTLKISRVEAEDVGLYYCMQGLQIPLTFGGGTKVEIK
B7: anti-IL-23p19 Fab/scFv cluster 101 (Fab, V domains shown)
V domain 1: QSELTQPRSVSGSPGQSVTISCTGTSSDVGGYNYVSWYRQDPGKAPKLIIYEVSKRPSGVSNRFSGSKSGNTASLTISGLHIEDEGLYYCSSFRYSRSLDYVFGTGTQVTVL
V domain 2: EVQLLESGGGLVQPGGSLRLSCAASGFTFSDYLMTWVRQAPGKGLEWVSGIWPSGGFTFYADSVKGRFTISRDNSKNTLYLQMNSLRAEDTAVYYCARAKGGDYGDPSPFDYWGQGTLVTVSS
B8: anti-IL-23p19 Fab/scFv cluster 122 (Fab, V domains shown)
VH: EVQLLESGGGLVQPGGSLRLSCAASGFTFSDYSMLWVRQAPGKGLEWVSYISSSGGPTKYADSVKGRFTISRDNSKNTLYLQMNSLRAEDTAMYYCARRHYNKRYFDYWGQGTLVTVSS
VL: DIQMTQSPSSLSASVGDRVTVTCRASQSISSYLNWYQQKPGKAPDLLIYAASSLQSGVPSRFSGSGSGTDFTLTISSLQPEDFVTYYCQETYSALTFGGGTKVEIK
B9: anti-IL-23p19 Fab/scFv cluster 129 (Fab, V domains shown)
VH: EVQLLESGGGLVQPGGSLRLSCAASGFTFSSYDMIWVRQAPGKGLEWVSRIVPSGGLTGYADSVKGRFTISRDNSKNTLYLQMNSLRAEDTAVYYCARYSLWLGADYWGQGTLVTVSS
VL: DIQMTQSPSSLSASVGDRVAITCRASQSIDTYLNWYQQKPGKAPKLLIYAASKLEDGVPSRFSGSGTGTDFTLTIRSLQPEDFASYFCQQSYSSPGITFGPGTKVEIK
B10: anti-IL-23p19 Fab/scFv cluster 124 (Fab, V domains shown)
VH: EVQLLESGGGLVQPGGSLRLSCAASGFTFSKYWMAWVRQAPGKGLEWVSYISPSGGWTRYADSVKGRFTISRDNSKNTLYLQMNSLRAEDTAVYYCARVGGSYSLGALDIWGQGTMVTVSS
VL: DIQMTQSPGTLSLSPGERATLSCRASQSVSSYLAWYQQKPGQAPRLLIFDASNRATGIPARFSGAGSGTDFTLTISSLEPEDFAVYYCQQRSNWPWTFGQGTKVEIK
B11: anti-IL-23p19 Fab/scFv cluster 126 (Fab, V domains shown)
VH: EVQLLESGGGLVQPGGSLRLSCAASGFTFSAYPMRWVRQAPGKGLEWVSYIYPSGGPTYYADSVKGRFTISRDNSKNTLYLQMNSLRAEDTAVYYCAQGVGAPVDSWGQGTLVTVSS
VL: QSELTQPPSASGIPGQRVTISCSGSHSNIGRNYVYWYQQLPGTAPKLLIYSNNERPAGVPDRFSGSKSGTSASLAISGLRSEDEVDYYCATWDDSLSGPVFGGGTKLTVL
B12: anti-IL-23p19 Fab/scFv cluster 127 (Fab, V domains shown)
VH: EVQLLESGGGLVQPGGSLRLSCAASGFTFSWYGTAWVRQAPGKGLEWVSVISPSGGPTFYADSVKGRFTISRDNSKNTLYLQMNSLRAEDMAVYYCARDSSGWRTAYYFDYWGQGTLVTVSS
VL: QSELTQPPSASGIPGQRVTISCSGSHSNIGRNYVYWYQQLPGTAPKLLIYSNNERPAGVPDRFSGSKSGTSASLDVSGLQSEDEADYYCASWDDSLIAWVFGGGTMLTVL
B13: anti-IL-23p19 Fab/scFv cluster 114 (Fab, V domains shown)
VH: EVQLLESGGGLVQPGGSLRLSCAASGFTFSWYVMMWVRQAPGKGLEWVSGISSSGGGTQYADSVKGRFTISRDNSKNTLYLQMNSLRAEDTAVYYCARGGYYYDVPYYWGQGTLVTVSS
VL: DIQMTQSPSSLSASVGDRVTITCRASQNINFYLSWFQQKPGKAPKLLIHSVNNLLGPVPSRFSGSGSGTDFTLTIVSLQPEDFATYYCQQGYRPPYTFGQGTKLEIK
B14: anti-IL-23p19 Fab/scFv cluster 128 (Fab, V domains shown)
VH: EVQLLESGGGLVQPGGSLRLSCAASGFTFSTYGMEWVRQAPGKGLEWVSSISPSGGYTGYADSVKGRFTISRDNSKNTLYLQMNSLRAEDTAVYYCAKDSLYSSSLDAFDIWGQGTMVTVSS
VL: QSALTQPPSASGTPGQRVTISCSGGYSNMGSNYAHWYQQLPGTAPKLLIYNNNQRPSGVPDRFSGSKSGTSASLAISGLRSEDEADYYCAAWDDSLSGPVFGGGTKLTVL
B15: anti-IL-23p19 Fab/scFv cluster 121 (Fab, V domains shown)
VH: EVQLLESGGGLVQPGGSLRLSCAASGFTFSGYDMSWVRQAPGKGLEWVSSIWSSGGYTKYADSVKGRFTISRDNSKNTLYLQMNSLRAEDTAVYYCARQGVGGSGSLLYWGQGTLVTVSS
VL: DIQMTQSPSSLSASVGDRVTITCRSSQGVRYDLGWYQQKPGKAPKLLIYGAFNLQGGVPSRFSGSGSGTDFTLTISGLQPEDFATYYCLQDFQYPFTFGPGTKVDVK

This experiment concerns the target human p19 subunit of IL-23 (human) (UniProt Q9NPF7). The experiment in a line: phage display screening.
As to B1, the binding result was “binds”.

Turning to B2, the binding result is given as “binds”. To B3 belongs “binds”; to B4, “binds”; to B5, “binds”. The value for B6 was “binds”; that for B7 was “binds”. With B8, the binding entry is listed as “binds”.

Regarding B9, the binding result was “binds”.

B10: the binding result is given as “binds”.

In the case of B11, the binding result is “binds”.

On to B12, for which the binding entry is “binds”. On to B13, for which the binding result is reported as “binds”. B14: the binding result is “binds”. For B15, the binding entry is recorded as “binds”.
